# Some of the results follow.
# B1: AT3G09350(27) (Arabidopsis thaliana), Q84J81 (protein)
# chain: MAKDGPNWDGLLKWSLSHADGTRPTRQLSEEDRKWFMEAMQSQTVDVVKRMKEITLVMQTPEQVLVEHGVTPEDIQDLLDELQEHVESIDMANDLHSIGGLVPLLSFLKNSHANIRAKAADVVSTIVQNNPRSQELVMETNALESLLSNFTSDTDIHARTQALGAISSLIRHNKPGVTAFKLANGYAGLRDALASDSVRFQRKALNLLQYLLQEDDSDRSIATGLGFPRVMMHLASSDDAEIREAALRGLLELSREKNDGSSSIDKSDEKLRQLLEERIKGITLMSQEDLETVKEERQLVDLLWSICYNEPSSLREKGLVVLPGEDALPPDVASKLFEPPLRASAANRNATEKKDEPMKLLGP
# Columns and labels:
# Assay in all cases: glycan array binding signal (z-score within array); higher = stronger binding
# Conditions in all cases: glycan notation: IUPAC condensed, linker removed
# Gal(a1-3)Gal(b1-4)GlcNAc = biological target: Gal(a1-3)Gal(b1-4)GlcNAc
# Method in brief: (§1)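 Negative Z-scores can be read as non-binding. The Z-score is calculated within each array and then averaged across arrays of one protein sequence at different concentrations or buffers and across linkers. Arrays, 3228 in all, were curated from the Consortium for Functional Glycomics database and kept only where the protein sequence was available.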
# [1] = biological target: Gal(a1-3)Gal(b1-4)GlcNAc(b1-2)Man
# Method in brief: as §1
# [2] = biological target: Gal(a1-3)Gal(b1-4)GlcNAc(b1-2)Man(a1-3)[Gal(a1-3)Gal(b1-4)GlcNAc(b1-2)Man(a1-6)]Man(b1-4)GlcNAc(b1-4)GlcNAc
# Method in brief: as §1
# [3] = biological target: Gal(a1-3)Gal(b1-4)GlcNAc(b1-3)GalNAc
# Method in brief: as §1
# [4] = biological target: Gal(a1-3)Gal(b1-4)GlcNAc(b1-6)GalNAc
# Method in brief: as §1
# [5] = biological target: Gal(a1-3)Gal(b1-4)[Fuc(a1-3)]GlcNAc
# Method in brief: as §1
# [6] = biological target: Gal(a1-3)Gal(b1-4)[Fuc(a1-3)]GlcNAc(b1-2)Man(a1-3)[Gal(a1-3)Gal(b1-4)[Fuc(a1-3)]GlcNAc(b1-2)Man(a1-6)]Man(b1-4)GlcNAc(b1-4)GlcNAc
# Method in brief: as §1
# Gal(a1-3)GalNAc = biological target: Gal(a1-3)GalNAc
# Method in brief: as §1
# [7] = biological target: Gal(a1-3)[Gal(a1-4)]Gal(b1-4)GlcNAc
# Method in brief: as §1
# [8] = biological target: Gal(a1-4)Gal(b1-3)GlcNAc(b1-2)Man(a1-3)[Gal(a1-4)Gal(b1-3)GlcNAc(b1-2)Man(a1-6)]Man(b1-4)GlcNAc(b1-4)GlcNAc
# Method in brief: as §1
# Gal(a1-4)Gal(b1-4)Glc = biological target: Gal(a1-4)Gal(b1-4)Glc
# Method in brief: as §1
# Gal(a1-4)Gal(b1-4)GlcNAc = biological target: Gal(a1-4)Gal(b1-4)GlcNAc
# Method in brief: as §1
# [9] = biological target: Gal(a1-4)Gal(b1-4)GlcNAc(b1-2)Man(a1-3)[Gal(a1-4)Gal(b1-4)GlcNAc(b1-2)Man(a1-6)]Man(b1-4)GlcNAc(b1-4)GlcNAc
# Method in brief: as §1
# [10] = biological target: Gal(a1-4)Gal(b1-4)GlcNAc(b1-3)Gal(b1-4)Glc
# Method in brief: as §1
# Gal(a1-4)GlcNAc = biological target: Gal(a1-4)GlcNAc
# Method in brief: as §1
# Gal(a1-6)Glc = biological target: Gal(a1-6)Glc
# Method in brief: as §1
# Gal(b1-2)Gal = biological target: Gal(b1-2)Gal
# Method in brief: as §1
# Gal(b1-3)Gal = biological target: Gal(b1-3)Gal
# Method in brief: as §1
# Gal(b1-3)Gal(b1-4)GlcNAc = biological target: Gal(b1-3)Gal(b1-4)GlcNAc
# Method in brief: as §1
# Gal(b1-3)GalNAc = biological target: Gal(b1-3)GalNAc
# Method in brief: as §1
# [11] = biological target: Gal(b1-3)GalNAc(a1-3)[Fuc(a1-2)]Gal(b1-4)Glc
# Method in brief: as §1
# [12] = biological target: Gal(b1-3)GalNAc(a1-3)[Fuc(a1-2)]Gal(b1-4)GlcNAc
# Method in brief: as §1
# Gal(b1-3)GalNAc(b1-3)Gal = biological target: Gal(b1-3)GalNAc(b1-3)Gal
# Method in brief: as §1
# [13] = biological target: Gal(b1-3)GalNAc(b1-3)Gal(a1-4)Gal(b1-4)Glc
# Method in brief: as §1
# [14] = biological target: Gal(b1-3)GalNAc(b1-4)Gal(b1-4)Glc
# Method in brief: as §1
# [15] = biological target: Gal(b1-3)GalNAc(b1-4)[Neu5Ac(a2-3)]Gal(b1-4)Glc
# Method in brief: as §1
# Gal(b1-3)GlcNAc = biological target: Gal(b1-3)GlcNAc
# Method in brief: as §1
# [16] = biological target: Gal(b1-3)GlcNAc(a1-3)Gal(b1-4)GlcNAc
# Method in brief: as §1
# [17] = biological target: Gal(b1-3)GlcNAc(a1-6)Gal(b1-4)GlcNAc
# Method in brief: as §1
# Gal(b1-3)GlcNAc(b1-2)Man = biological target: Gal(b1-3)GlcNAc(b1-2)Man
# Method in brief: as §1
# [18] = biological target: Gal(b1-3)GlcNAc(b1-2)Man(a1-3)[Gal(b1-3)GlcNAc(b1-2)Man(a1-6)]Man(b1-4)GlcNAc(b1-4)GlcNAc
# Method in brief: as §1
# [19] = biological target: Gal(b1-3)GlcNAc(b1-2)Man(a1-3)[Gal(b1-3)GlcNAc(b1-2)Man(a1-6)]Man(b1-4)GlcNAc(b1-4)[Fuc(a1-6)]GlcNAc
# Method in brief: as §1
# [20] = biological target: Gal(b1-3)GlcNAc(b1-2)Man(a1-3)[GlcNAc(b1-4)][Gal(b1-3)GlcNAc(b1-2)Man(a1-6)]Man(b1-4)GlcNAc(b1-4)GlcNAc
# Method in brief: as §1
# [21] = biological target: Gal(b1-3)GlcNAc(b1-2)[Gal(b1-3)GlcNAc(b1-6)]Man(a1-6)[Gal(b1-3)GlcNAc(b1-2)Man(a1-3)]Man(b1-4)GlcNAc(b1-4)GlcNAc
# Method in brief: as §1
# [22] = biological target: Gal(b1-3)GlcNAc(b1-3)Gal(b1-3)GlcNAc
# Method in brief: as §1
# [23] = biological target: Gal(b1-3)GlcNAc(b1-3)Gal(b1-4)Glc
# Method in brief: as §1
# [24] = biological target: Gal(b1-3)GlcNAc(b1-3)Gal(b1-4)GlcNAc
# Method in brief: as §1
# [25] = biological target: Gal(b1-3)GlcNAc(b1-3)Gal(b1-4)GlcNAc(b1-2)Man(a1-3)[Gal(b1-3)GlcNAc(b1-3)Gal(b1-4)GlcNAc(b1-2)Man(a1-6)]Man(b1-4)GlcNAc(b1-4)GlcNAc
# Method in brief: as §1
# [26] = biological target: Gal(b1-3)GlcNAc(b1-3)Gal(b1-4)GlcNAc(b1-2)[Gal(b1-3)GlcNAc(b1-3)Gal(b1-4)GlcNAc(b1-6)]Man(a1-6)[Gal(b1-3)GlcNAc(b1-3)Gal(b1-4)GlcNAc(b1-2)Man(a1-3)]Man(b1-4)GlcNAc(b1-4)[Fuc(a1-6)]GlcNAc
# Method in brief: as §1
# [27] = biological target: Gal(b1-3)GlcNAc(b1-3)Gal(b1-4)GlcNAc(b1-3)Gal(b1-4)GlcNAc(b1-2)[Gal(b1-3)GlcNAc(b1-3)Gal(b1-4)GlcNAc(b1-3)Gal(b1-4)GlcNAc(b1-6)]Man(a1-6)[Gal(b1-3)GlcNAc(b1-3)Gal(b1-4)GlcNAc(b1-3)Gal(b1-4)GlcNAc(b1-2)Man(a1-3)]Man(b1-4)GlcNAc(b1-4)[Fuc(a1-6)]GlcNAc
# Method in brief: as §1
# [28] = biological target: Gal(b1-3)GlcNAc(b1-3)Gal(b1-4)GlcNAc(b1-6)[Gal(b1-3)GlcNAc(b1-3)]Gal(b1-4)Glc
# Method in brief: as §1
# [29] = biological target: Gal(b1-3)GlcNAc(b1-3)Gal(b1-4)[Fuc(a1-3)]GlcNAc
# Method in brief: as §1
# [30] = biological target: Gal(b1-3)GlcNAc(b1-3)Gal(b1-4)[Fuc(a1-3)]GlcNAc(b1-6)[Gal(b1-3)GlcNAc(b1-3)]Gal(b1-4)Glc
# Method in brief: as §1
# [31] = biological target: Gal(b1-3)GlcNAc(b1-3)GalNAc
# Method in brief: as §1
# [32] = biological target: Gal(b1-3)GlcNAc(b1-6)Gal(b1-4)GlcNAc
# Method in brief: as §1
binder,measurement,setting,value
B1,glycan array binding signal (z-score),Gal(a1-3)Gal(b1-4)GlcNAc,-0.709
same,glycan array binding signal (z-score),[1],1.33
same,glycan array binding signal (z-score),[2],0.636
same,glycan array binding signal (z-score),[3],0
same,glycan array binding signal (z-score),[4],-0.714
same,glycan array binding signal (z-score),[5],-0.122
same,glycan array binding signal (z-score),[6],-0.652
same,glycan array binding signal (z-score),Gal(a1-3)GalNAc,2.5
same,glycan array binding signal (z-score),[7],8.94
same,glycan array binding signal (z-score),[8],-0.228
same,glycan array binding signal (z-score),Gal(a1-4)Gal(b1-4)Glc,2.11
same,glycan array binding signal (z-score),Gal(a1-4)Gal(b1-4)GlcNAc,0.589
same,glycan array binding signal (z-score),[9],0.684
same,glycan array binding signal (z-score),[10],0.321
same,glycan array binding signal (z-score),Gal(a1-4)GlcNAc,-0.641
same,glycan array binding signal (z-score),Gal(a1-6)Glc,-0.554
same,glycan array binding signal (z-score),Gal(b1-2)Gal,-0.771
same,glycan array binding signal (z-score),Gal(b1-3)Gal,-0.545
same,glycan array binding signal (z-score),Gal(b1-3)Gal(b1-4)GlcNAc,-0.117
same,glycan array binding signal (z-score),Gal(b1-3)GalNAc,-0.049
same,glycan array binding signal (z-score),[11],-0.346
same,glycan array binding signal (z-score),[12],-0.501
same,glycan array binding signal (z-score),Gal(b1-3)GalNAc(b1-3)Gal,-0.768
same,glycan array binding signal (z-score),[13],-0.504
same,glycan array binding signal (z-score),[14],1.91
same,glycan array binding signal (z-score),[15],-0.618
same,glycan array binding signal (z-score),Gal(b1-3)GlcNAc,0.365
same,glycan array binding signal (z-score),[16],-0.421
same,glycan array binding signal (z-score),[17],-0.013
same,glycan array binding signal (z-score),Gal(b1-3)GlcNAc(b1-2)Man,-0.177
same,glycan array binding signal (z-score),[18],-0.342
same,glycan array binding signal (z-score),[19],-0.315
same,glycan array binding signal (z-score),[20],-0.781
same,glycan array binding signal (z-score),[21],0.379
same,glycan array binding signal (z-score),[22],-0.089
same,glycan array binding signal (z-score),[23],-0.507
same,glycan array binding signal (z-score),[24],-0.582
same,glycan array binding signal (z-score),[25],-0.517
same,glycan array binding signal (z-score),[26],0.867
same,glycan array binding signal (z-score),[27],-0.059
same,glycan array binding signal (z-score),[28],-0.181
same,glycan array binding signal (z-score),[29],0.65
same,glycan array binding signal (z-score),[30],-0.222
same,glycan array binding signal (z-score),[31],-0.367
same,glycan array binding signal (z-score),[32],3.05

# 2 consecutive records already listed:
binder,measurement,setting,value
B1,glycan array binding signal (z-score),[10],0.321
same,glycan array binding signal (z-score),Gal(a1-4)GlcNAc,-0.641
